# Test: general procedure: solution-phase peptide synthesis; HATU with triethylamine or diisopropylethylamine
# Settings: for final HPLC purity: HPLC Protocol A at 45 °C
# [1] = late stage modification step, TFA salt
Substance,step yield (coupling step),final HPLC purity [1],step yield [1],step yield (late stage modification step)
"1-(tert-butoxycarbonyl)-2-methyl-L-prolyl-N-{(1S,2R)-4-{(2S)-2-[(1R,2R)-3-{[(1 S)-1-benzyl-2-methoxy-2-oxoethyl]amino}-1-methoxy-2-methyl-3-oxopropyl]pyrrolidin-1-yl}-2-methoxy-1-[(1 S)-1-inethylpropyl]4-oxobutyl}-N-methyl-Lvalinamide",74%,–,–,–
"2-methyl-L-prolyl-N-[(3R,4S,5S)-1-{(2S)-2-[(1R,2R)-3-{[(1 S)-1-carboxy-2-phenylethyl]amino}-1-methoxy-2-methyl-3-oxopropyl]pyrrolidin-1-yl}-3-methoxy-5-methyl-1-oxoheptan-4-yl]-N-methyl-L-valinamide, trifluoroacetic acid salt",–,purity>98%,89%,–
"2-methyl-L-prolyl-N-{(1 S,2R)-4-{(2S)-2-[(1R,2R)-3-{[(1 S)-1-benzyl-2-methoxy-2-oxoethyl]amino}-1-methoxy-2-methyl-3-oxopropyl]pyrrolidin-1-yl}-2-methoxy-1-[(1 S)-1-methylpropyl]-4-oxobutyl}-N-methyl-L-valinamide, trifluoroacetic acid salt",–,purity>91%,89%,–
"2-methylalanyl-N-[(3R,4S,5S)-3-methoxy-1-{(2S)-2-[(1R,2R)-1-methoxy-2-methyl-3-oxo-3-{[(1S)-2-phenyl-1-(1,3-thiazol-2-yl)ethyl]amino}propyl]pyrrolidin-1-yl}-5-methyl-1-oxoheptan-4-yl]-N-methyl-L-valinamide",–,–,–,75%
"N-[(9H-fluoren-9-ylmethoxy)carbonyl]-2-methylalanyl-N-[(3R,4S,5S)-3-methoxy-1-{(2S)-2-[(1R,2R)-1-methoxy-2-methyl-3-oxo-3-{[(1S)-2-phenyl-1-(1,3-thiazol-2 yl)ethyl]amino}propyl]pyrrolidin-1-yl}-5-methyl-1-oxoheptan-4-yl]-N-methyl-L-valinamide",74%,–,–,–

# — patent publication US12371507B2 (Beth Israel Deaconess Medical Center, priority 2018, dated 2025)
